Hit rate of the full screen: of about 400,000 compounds, about 5,500 (1.4%) were called active. Inconclusive results, whose numbers are uncertain, are shown with a selection of clear calls. Calls come from the whole dose curve; as a rule, active = well fitted cell-killing curve with a large enough effect; inconclusive = small, poorly fitted or top-dose-only effect, or effect the other way; inactive = flat fitted curve, though single readings scatter. Potencies of inconclusive entries are doubtful fits and often do not repeat.
Test: qHTS assay for MDR1-selective chemotherapeutics: Primary screen using the parental adenocarcinoma cell KB-3-1; note: nearly all actives have a fitted effect of over 60% in size
Conditions: KB-3-1 viability, CellTiter-Glo ATP luminescence, 72 h; activity change, negative = cytotoxic: at 46.1 µM (top of the series)
In short: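 Luminescent ATP read-out (CellTiter-Glo) measures survival of drug-naive KB-3-1 cells after 72 h compound exposure at 37 °C. Titration series was screened from lowest to highest concentration, with DMSO vehicle plates as background controls.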
% is set by controls: 0 for no effect and ±100 for the full control effect; potency is the fitted concentration of half-maximal effect.

| SMILES | Potency | activity change, negative = cytotoxic |
| --- | --- | --- |
| CCCn1nc(C(=O)NNC(=O)c2ccc(C)c(C)c2)c2ccccc2c1=O | inconclusive: 20.6 µM [rising, single point] | – |
| COc1ccccc1NC(=O)CSc1nc2ccccc2c2nc(-c3ccccc3)nn12 | – | inactive: -6.25% |
| COc1ccc(-c2nn(-c3ccccc3)cc2/C=N/NC(=O)c2cccc(S(=O)(=O)Nc3ccccc3Cl)c2)cc1 | inconclusive: 29.1 µM [cytotoxic, single point] | – |
| COc1cc(C(=O)Oc2ccccc2/C=N/NC(=O)c2ccc(Cl)cc2)cc(OC)c1OC | active: 5.17 µM | – |
| NC(Cc1ccc(C(F)(F)F)cc1)c1csc(Nc2nncc3ccccc23)n1 (stereo not drawn) | inconclusive: 29.1 µM [cytotoxic, single point] | – |
| N#C/C(=C(/O)COc1ccc(Cl)cc1)c1nc2ccccc2s1 | inconclusive: 29.1 µM [cytotoxic, single point] | – |
| CN1/C(=C\C(=O)COC(=O)c2ccc(O)cc2)C(C)(C)c2ccccc21 | inconclusive: 18.4 µM [cytotoxic, single point] | – |
| CC(=O)CCC(=O)N1CCC(n2nccc2NC(=O)c2ccccc2C)CC1 | inconclusive: 29.1 µM [cytotoxic, single point] | – |
| CCc1ccc2c(c1)C1(NN=C(c3ccc(C)cc3)S1)C(=O)N2 (stereo not drawn) | inconclusive: 20.6 µM [cytotoxic, single point] | – |
| Nc1[nH]c(C(=O)c2ccccc2)c(-c2ccc([N+](=O)[O-])cc2)c1C(=O)NCCc1c[nH]c2ccccc12 | inconclusive: 29.1 µM [cytotoxic, single point] | – |
| C(=C\c1ccnc2ccccc12)/c1ccc(N2CCNCC2)cc1 | inconclusive: 29.1 µM [cytotoxic, single point] | – |
| CCSc1nnc(NC(=O)c2ccc(Br)s2)s1 | inconclusive: 36.6 µM [cytotoxic, single point] | – |
| CC(C)OC(=O)c1ccc(N2CCN(c3ccccc3F)CC2)nc1 | inconclusive: 29.1 µM [cytotoxic, single point] | – |
| O=C1c2cccc(OCc3ccc(F)cc3)c2CCN1Cc1ccccc1 | active: 16.4 µM | – |
| O=c1oc(-c2cccc(C(F)(F)F)c2)nn1-c1ccc(C(F)(F)F)cn1 | inconclusive: 1.46 µM [rising, partial curve, poor fit] | – |
| O=C1CCCc2c1[nH]c1ccc(CN3CCCCC3)cc21 | – | inactive: -17.4% |
| COc1cc(NC(=O)CSc2nc3cc(C)ccc3cc2C)c(C(=O)O)cc1OC | inconclusive: 18.4 µM [cytotoxic, partial curve, poor fit] | – |
| CCN1C(=O)c2ccccc2S(=O)c2ccc(C(=O)N3CCN(c4cccc(C)c4)C(C)C3)cc21 (stereo not drawn) | active: 18.4 µM | – |

An excerpt of the results above, as a working copy:

| SMILES | Potency | activity change, negative = cytotoxic |
| --- | --- | --- |
| CCCn1nc(C(=O)NNC(=O)c2ccc(C)c(C)c2)c2ccccc2c1=O | inconclusive: 20.6 µM [rising, single point] | – |
| COc1ccccc1NC(=O)CSc1nc2ccccc2c2nc(-c3ccccc3)nn12 | – | inactive: -6.25% |
| COc1ccc(-c2nn(-c3ccccc3)cc2/C=N/NC(=O)c2cccc(S(=O)(=O)Nc3ccccc3Cl)c2)cc1 | inconclusive: 29.1 µM [cytotoxic, single point] | – |
| COc1cc(C(=O)Oc2ccccc2/C=N/NC(=O)c2ccc(Cl)cc2)cc(OC)c1OC | active: 5.17 µM | – |

— PubChem BioAssay AID1347075 (National Center for Advancing Translational Sciences (NCATS), 2019)
